Primary screen of a compound library

The chains behind the UniProt entries cited, without tags or fusion partners.
UniProt E9BF75, entry or part of it: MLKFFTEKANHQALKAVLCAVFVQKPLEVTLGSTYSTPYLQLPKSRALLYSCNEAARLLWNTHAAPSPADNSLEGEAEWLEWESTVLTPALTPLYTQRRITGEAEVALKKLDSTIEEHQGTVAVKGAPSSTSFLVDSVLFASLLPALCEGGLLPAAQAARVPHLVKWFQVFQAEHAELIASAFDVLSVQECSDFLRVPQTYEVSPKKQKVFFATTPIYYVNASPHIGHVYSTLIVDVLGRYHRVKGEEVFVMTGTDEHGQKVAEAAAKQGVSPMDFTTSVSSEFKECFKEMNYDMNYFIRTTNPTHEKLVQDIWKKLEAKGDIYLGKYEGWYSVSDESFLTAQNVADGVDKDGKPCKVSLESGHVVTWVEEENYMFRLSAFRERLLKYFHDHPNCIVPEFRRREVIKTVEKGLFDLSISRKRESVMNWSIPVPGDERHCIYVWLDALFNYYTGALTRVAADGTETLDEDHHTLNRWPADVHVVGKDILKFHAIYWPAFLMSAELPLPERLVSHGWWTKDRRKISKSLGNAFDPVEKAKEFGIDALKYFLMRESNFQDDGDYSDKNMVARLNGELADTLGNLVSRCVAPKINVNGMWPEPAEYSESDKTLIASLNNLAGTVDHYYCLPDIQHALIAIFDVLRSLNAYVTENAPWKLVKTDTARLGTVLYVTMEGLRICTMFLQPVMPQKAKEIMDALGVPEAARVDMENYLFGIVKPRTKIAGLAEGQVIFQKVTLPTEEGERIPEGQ

From ChEMBL document CHEMBL3988442, “University of Dundee, Small-Polar-MMV Screening Library” (2021).

LdMetRS: 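Methionyl-tRNA synthetase (putative), Leishmania donovani (UniProt E9BF75). Primary screen of methionyl-tRNA synthetase; the read-out is not stated. The test concentration is not given. The values are filed as inhibition. Of about 68,000 compounds tested this way, about 24 (0.035%) reached 50% or more in at least one test.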
Mtb heat-shock: 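Assay on Mycobacterium tuberculosis, filed only as a heat shock assay from Cornell; the read-out is not stated. The concentration is filed as 10 mM, unlikely as a test dose, so the dose is not known. Direction is inferred from retests: higher values go with stronger inhibition. Of about 69,000 compounds tested this way, about 930 (1.4%) reached 50% or more in at least one test.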

All values are in %.
How 0% and 100% were set is not recorded. Most values in the screen are low, and negative values occur.
This is an unselected part of the compounds tested.
A dash means the value is not listed here; it may have been measured.

structure,LdMetRS,Mtb heat-shock
OCCn1cc(CN2CCN(CCOc3cccc(F)c3)CC2)cn1,19.37,-24.28
CC(C)CN1C(=O)CC[C@]12CC[C@@H](NC(=O)NCc1cccnc1)CC2.O=C(O)C(F)(F)F,-,6.165
CC(C)(C)C(O)CN1CCN(C(=O)c2cccc3[nH]ncc23)CC1 (stereo unspecified),8.589,30.45
CCc1nnc(Nc2cc(C)nc(C3CCN(c4ncccn4)C3)n2)s1 (stereo unspecified),4.43,-23.68
Cn1cc(CCNC(=O)NCc2nnc3n2CCC3)cn1,7.042,19.5
C=C(C)CN1CCN(Cc2cnc(-c3ccccc3C)nc2)CC1,5.806,-
CCn1cc(N2Cc3nc(N4CCN(C)CC4)ncc3C2=O)cn1,17.01,3.321
Cc1cc(C2CCCN2CCCS(=O)(=O)c2ccccc2)no1 (stereo unspecified),11.66,30.02
COc1ccc(C(=O)NC2CC2)c(OC2CCN(CCCSC)CC2)c1,15.64,-38.04
O=c1[nH]nc(SCC2CCCO2)n1C1CC1 (stereo unspecified),11.46,19.42
O=C(O)C(F)(F)F.[H][C@@]12CCN(S(C)(=O)=O)[C@@]1([H])CCN2Cc1ccc(C)s1,-,-2.75
Cc1cc(-c2ccccc2C(=O)O)nc(C2CCCN(C)C2)n1 (stereo unspecified),16.38,-5.455
CN(C)c1cccc(C(=O)N2CCCC2c2ncc3c(n2)CCNC3)c1.Cl (stereo unspecified),-,-28.03
Cc1cc(C(C)NC(=O)c2c[nH]c(=O)c(Cl)c2)c(C)o1 (stereo unspecified),19.55,-4.758
CCn1ncc2c1C(COCC1CC1)N(Cc1ccccn1)CC2 (stereo unspecified),15.68,-
Cn1cc(C2CC(=O)NC23CCN(C(=O)C2CC=CC2)CC3)cn1 (stereo unspecified),4.658,-18.28
N#Cc1ccc(F)c(CN2CCNC(=O)C2c2cccs2)c1 (stereo unspecified),6.475,-19.32
[H][C@]12CN(c3ncccn3)C[C@@]1([H])S(=O)(=O)CC[C@@H]2C(=O)N(C)C,-,27.13
CC(C)NC(=O)[C@H]1C[C@@H]2CN(C(=O)NC(C)C)C[C@H]1O2,14.01,-
O=C(NCC1CCC1)c1ccc(-n2ccnc2)nn1,13.65,15.75
CC(=O)c1cccc(NC(=O)N(CC(F)F)C2CC2)c1,11.67,-37.75
Cl.Nc1ncc(-c2csc(NC(=O)C[C@H]3COCCN3)n2)cn1,-,-19.35
C1CCC(CNC2CCSCC2)(N2CCOCC2)CC1,13.54,-10.14
CCC1CN(C(=O)c2ccccc2N(C)C)CCN1C(C)C (stereo unspecified),8.065,-12.83
Cc1noc(C2CCN(C(=O)CCc3nccs3)CC2)n1,7.975,51.73
COc1c(CNC2CCN(C(=O)C3CC3)CC2)c(C(C)C)nn1C,19.69,16.48
[H][C@]12CCN(c3ncccc3F)C[C@]1(COC)CC[C@@H](N1CCOCC1)C2,-,12.32
Fc1cnc(N2CCn3c(CN4CCCC4)nnc3C2)nc1.O=C(O)C(F)(F)F,-,-4.394
Cn1c(CN2CCCC(Cn3cncn3)C2)nc2ccccc21 (stereo unspecified),1.587,9.724
[H][C@@]12CCN(c3ncccn3)C[C@]1([H])O[C@@H](C(=O)NCCOC)C2,-,-49.59
CNS(=O)(=O)CCCN1CCN(C(C)c2cccnc2)CC1 (stereo unspecified),2.083,3.925
O=C(O)C(F)(F)F.[H][C@@]12CN(Cc3cccs3)CCC[C@]1(C(=O)OCC)CN(C(C)=O)C2,-,5.52
COCCn1cc(C(=O)N2CCCC2c2cccc(C)c2)ccc1=O (stereo unspecified),15.05,-23.02
COCCC(=O)N1CCC2(CCN(Cc3cccc(F)c3)C2)C1 (stereo unspecified),7.143,-15.79
NC(=O)CCSCc1cc(Br)cc2cccnc12,10.65,0.4997
COc1ccc(CNC(=O)CN2CCc3ccccc32)cc1,1.63,-48.79
O=C(c1ccc2cccc(F)c2n1)N1CCN(CCn2cncn2)CC1,13.04,-5.899
Cc1ccccc1C1CCCN1Cc1ccc(S(=O)(=O)N(C)C)o1 (stereo unspecified),20.39,5.16
O=C(Nc1nc2c(s1)CN(S(=O)(=O)C1CC1)CC2)c1cccc(Cl)c1,22.13,26.7
Cc1cc(C)n(-c2cc(N3CCN(C(=O)C(C)(C)C)CC3)nc(C)n2)n1,12.68,7.803
COC1CCN(C(=O)Cc2csc(-c3ccc(F)cc3)n2)CC1,16.94,-26.11
CC(C)c1nnsc1CNC(=O)C1CCCN(C(=O)N(C)C)C1 (stereo unspecified),8.403,-8.076
COc1cccc(CNCc2ccc(NC(=O)NC(C)C)cc2)c1,19.67,-44.29
CCC(CC)NC(=O)c1nc2n(n1)-c1ccccc1S(=O)(=O)N2,20.36,10.22
O=C(O)C(F)(F)F.c1cncc(COC2COC3(CCN(c4cnccn4)CC3)C2)c1 (stereo unspecified),-,-12.83
Cc1nc(C(=O)N(C)C)nn1-c1ccccc1C(C)C,8.287,11.52